The assay concerns the target T1, human CCKBR extracellular peptide (human, UniProt P32239 39-53).
T1 construct: domain: extracellular fragment of human CCK-BR; also called human peptide; human CCKBR peptide
Nature of the assay: indirect ELISA on human CCKBR peptide, OD450nm against nM scFv.

Amino acid sequences for entries named in this document (tags omitted). A change or cut given only in a name is not applied to a line headed by its entry.
UniProt P32239: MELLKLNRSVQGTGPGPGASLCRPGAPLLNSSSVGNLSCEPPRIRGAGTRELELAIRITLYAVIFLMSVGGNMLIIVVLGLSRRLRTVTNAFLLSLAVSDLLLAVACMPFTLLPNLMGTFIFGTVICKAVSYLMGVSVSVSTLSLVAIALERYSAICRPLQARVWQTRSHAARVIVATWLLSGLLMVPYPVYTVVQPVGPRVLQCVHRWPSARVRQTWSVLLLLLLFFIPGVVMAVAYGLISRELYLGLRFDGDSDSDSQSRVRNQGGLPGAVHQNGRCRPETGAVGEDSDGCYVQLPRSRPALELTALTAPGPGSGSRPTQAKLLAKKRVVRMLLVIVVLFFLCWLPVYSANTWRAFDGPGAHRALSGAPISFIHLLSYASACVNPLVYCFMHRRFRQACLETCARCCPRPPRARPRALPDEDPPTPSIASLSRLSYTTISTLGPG

No constants are given. Whether binding was seen depends on the method and setting. Some entries that bind do so weakly or less than the wild type.

The source of these data is patent publication US20250313643A1 (UNM RAINFOREST INNOVATIONS, published 2025).

B1: scFv77-2 hu HC2-LC3 (scFv)
scFv: MAQVQLVQSGAEVKKPGASVKVSCKASGFNIKDYYIHWVRQAPGQGLEWIGWIDPENGDTEYAPKFQGRATMTADTSISTAYMELSRLRSDDTAVYYCNAGGRFAYWGQGTLVTVSSGGGGSGGGGSGGGGSDIQMTQSPSTLSASVGDRVTITCKSSQSLLNSGNQKNYLAWYQQKPGKAPKLLIYGASTRESGVPSRFSGSGSGTEFTLTISSLQPDDFATYYCQNDHSYPYTFGGGTKVEIKENLYFQGAAALEHHHHHH
notes: also called humanized CCKBR scFv HC2-LC3; CCKBR hscFv HC2-LC3
For B1, the binding result is “binds”.

B2: mscFv77-2 Parental (scFv, V domains shown)
VH: EVQLQQAGAELVRSGASVKLSCTASGFNIKDYYIHWVKQRPEQGLEWIGWIDPENGDTEYAPKFQGKATMTADTSSNTAYLQLSSLTSEDTAVYYCNAGGRFAYWGQGTLVTVSA
VL: DIVMTQSPSSLSVSAGEKVTMSCKSSQSLLNSGNQKNYLAWYQQKPGQPPKLLIYGASTRESGVPDRFTGSGSGTDFTLTISSVQAEDLAVYYCQNDHSYPYTFGGGTKLEIK
notes: Murine single-chain Fv; It has a kappa light chain; also called murine parent scFv; parental scFv
As for B2, the binding result is on record as “binds”.
